This is an account of results in publication PMC8162360 (Chemical Science, 2020).

This data set in a line: general procedure: Fmoc solid-phase peptide synthesis; 2-chlorotrityl chloride resin; Oxyma Pure/DIC. The following applies: for step yield: late stage modification step.

For biseokeaniamide C, the step yield was 69%. Moreover, the difficulty met result (coupling step) is reported as “led to complete loss of stereochemical integrity at the Val α-position”.
Biseokeaniamide B returned a step yield of 53%.
With Biseokeaniamide A, the step yield stood at 67%.
